According to patent US5338725A (The Research Foundation of the State University of New York, priority 1992, dated 1994):

experiment: general procedure: Fmoc solid-phase peptide synthesis; DIC/HOBt; conditions: late stage modification step, acetic acid salt (crude as TFA salt)

Going from (p)Pht-RGDF-OH to Bda-RGDF-OH, the step yield rises from 23% yield to 60% yield.

Going from Pda-RGDF-OH to Suc-RGDF-OH, the step yield rises from 34% yield to 42% yield.

same assay, conditions: whole synthesis, scale 0.05 mmol, TFA salt

In the case of (BzRGDF)2 Dac--RGDF-OH, the crude mass is reported as 72 mg.

(BzRGDF)2 Dac--RGDF-OH gave a crude yield of 80% yield.

same assay, conditions: whole synthesis, scale 0.1 mmol, TFA salt

Going from (GRGDF)2 Lys--GRGDF--NH2 to (GRGDF)2 Lys--NH2, the crude mass falls from 221 mg to 182 mg.

Going from (GRGDF)2 Orn--GRGDF--NH2 to (GRGDF)2 Orn--NH2, the crude mass falls from 232 mg to 172 mg.

First: (GRGDFG)2 Dab--GRGDF--NH2
Second: GRGDFG--(p)Abz--GRGDF--OH
The crude mass of the first is higher: 160 mg for the first, 98 mg for the second.

Compared with GRGDVG--(m)Abz--GRGDF--NH2, GRGDVG--(p)Abz--GRGDF--NH2 is lower in crude mass: 127 mg for the first, 126 mg for the second.

(GRGDF)2 Lys--GRGDF--NH2 and (GRGDF)2 Lys--NH2 are the same in crude yield: 100 % yield for the first, 100 % yield for the second.

(GRGDF)2 Orn--GRGDF--NH2 and (GRGDF)2 Orn--NH2 are the same in crude yield: 100 % yield for the first, 100 % yield for the second.

First: (GRGDFG)2 Dab--GRGDF--NH2
Second: (RGDFPG)2 Dab--G--OH
The crude yield of the first is lower: 86% yield for the first, 87 % yield for the second.

Going from (RGDFPG)2 Dab--NH2 to GRGDFG--(m)Abz--GRGDF--NH2, the crude yield falls from 91% yield to 79 % yield.

Going from GRGDFG--(m)Abz--GRGDF--OH to GRGDFG--(p)Abz--GRGDF--NH2, the crude yield falls from 88 % yield to 84 % yield.

First: GRGDFG--(p)Abz--GRGDF--OH
Second: GRGDSG--(m)Abz--GRGDF--NH2
The crude yield of the first is lower: 74 % yield for the first, 97 % yield for the second.

Compared with GRGDVG--(m)Abz--GRGDF--NH2, GRGDVG--(p)Abz--GRGDF--NH2 is lower in crude yield: 93 % yield for the first, 91% yield for the second.

First: (RGDFPG)2 Dab--G--OH
Second: (RGDFPG)2 Dab--NH2
The crude mass of the first is lower: 138 rag for the first, 141 rag for the second.

Going from GRGDFG--(m)Abz--GRGDF--NH2 to GRGDFG--(m)Abz--GRGDF--OH, the crude mass rises from 107 rag to 114 rag.

Going from GRGDFG--(p)Abz--GRGDF--NH2 to GRGDSG--(m)Abz--GRGDF--NH2, the crude mass rises from 114 rag to 134 rag.

Starred links: 1 amine or outer side, 2 acyl side, 3 side chain; linkers in the order of their positions; H or OH if unused. Suc = O=C(CCC(=O)[*:2])[*:1]
